Structures can show the parent of a compound that is named as a salt. Where two headings read alike, the source gives them in different places. About 60 (2%) of roughly 3,300 compounds showed an effect of 50% or more. The list shows a part of the results.
Tested on: HCoV-OC43
Design: species or system RD; HTS, protection from HCoV-OC43 induced cell death, luminescent cell viability (CellCounting-Lite 2.0), inhibition rate
Conditions: 24 h post infection, 1 h compound pre-incubation, 10 µM, inhibitor

SMILES | OC43 Inhibition rate | OC43 Inhibition rate (OC43 Inhibition rate, 24 h)
CCCCCCCCC[C@H](O)CC(=O)CCc1ccc(O)c(OC)c1 [10-Gingerol] | -1.5% | –
CN[C@@H]1[C@H](O[C@H]2[C@H](O[C@H]3[C@H](O)[C@@H](O)[C@H](N=C(N)N)[C@@H](O)[C@@H]3N=C(N)N)O[C@@H](C)[C@]2(O)C=O)O[C@@H](CO)[C@H](O)[C@H]1O [Streptomycin (sulfate)] | -7.3% | –
CC1(C)O[C@H]2[C@H](O)CC(C(=O)O)=C[C@H]2O1 [3,4-O-Isopropylidene-shikimic acid] | -0.8% | –
COc1cc(CNC(=O)CCCC/C=C/C(C)C)ccc1O[C@@H]1O[C@H](CO)[C@@H](O)[C@H](O)[C@H]1O [Capsaicin β-D-glucopyranoside] | 0.3% | –
C=C1[C@@H](O)[C@]23C[C@@H]1[C@@H](O)C[C@H]2[C@@]12C4[C@@H]3C[C@@H]1[C@@](C)(CC[C@@H]2O)CN4CC [12-Epinapelline] | 2.1% | –
O=C(O)/C=C/c1ccc2c(c1)OCO2 [(E)-3,4-(Methylenedioxy)cinnamic acid] | – | -0.3%
CSCC[C@H](NC(C)=O)C(=O)O [N-Acetyl-L-methionine] | 0.8% | –
CCCCCCCCCCCO [1-Undecanol] | -1.7% | –
COc1cccc2c1C(=O)c1c(O)c3c(c(O)c1C2=O)C[C@@](O)(C(=O)CO)C[C@@H]3O[C@H]1C[C@H](N)[C@H](O)[C@H](C)O1 [Doxorubicin (hydrochloride)] | -6.5% | –
COc1ccc2c3c1O[C@H]1C[C@@H](O)C=C[C@@]31CC[N+](C)([O-])C2 (stereo partly shown) [Galanthamine N-Oxide] | -1.6% | –
C=CC(C)(C)O[C@@H]1O[C@H](CO)[C@@H](O)[C@H](O)[C@H]1O [Crenulatin] | -0.3% | –
CC1(C)[C@H](OC(=O)c2ccccc2)CC[C@]2(C)C3=CC[C@@]4(C)[C@@H]5C[C@](C)(COC(=O)c6ccccc6)CC[C@]5(C)CC[C@]4(C)C3=CC[C@@H]12 [3,29-O-Dibenzoyloxykarounidiol] | -4.4% | –
COc1cc(O)c2c(=O)c(O[C@@H]3O[C@H](CO[C@@H]4O[C@@H](C)[C@H](O)[C@@H](O)[C@H]4O)[C@@H](O)[C@H](O)[C@H]3O)c(-c3ccc(OC)c(O)c3)oc2c1 [Ombuoside] | -0.8% | –
NC(N)=N[C@@H](CC(=O)O)C(=O)O [Guanidinosuccinic acid] | -0.1% | –
O=C(O)/C=C/CCCCCCCCC(=O)O [Traumatic Acid] | 2.5% | –
O=C(OC[C@H]1O[C@@H](OC(=O)c2cc(O)c(O)c(OC(=O)c3cc(O)c(O)c(O)c3)c2)[C@H](OC(=O)c2cc(O)c(O)c(OC(=O)c3cc(O)c(O)c(O)c3)c2)[C@@H](OC(=O)c2cc(O)c(O)c(OC(=O)c3cc(O)c(O)c(O)c3)c2)[C@@H]1OC(=O)c1cc(O)c(O)c(OC(=O)c2cc(O)c(O)c(O)c2)c1)c1cc(O)c(O)c(OC(=O)c2cc(O)c(O)c(O)c2)c1 [Tannic acid] | -1.3% | –

An excerpt of these results, as tab-separated lines.
SMILES	OC43 Inhibition rate	OC43 Inhibition rate (OC43 Inhibition rate, 24 h)
COc1cccc2c1C(=O)c1c(O)c3c(c(O)c1C2=O)C[C@@](O)(C(=O)CO)C[C@@H]3O[C@H]1C[C@H](N)[C@H](O)[C@H](C)O1 [Doxorubicin (hydrochloride)]	-6.5%	–
COc1cc(O)c2c(=O)c(O[C@@H]3O[C@H](CO[C@@H]4O[C@@H](C)[C@H](O)[C@@H](O)[C@H]4O)[C@@H](O)[C@H](O)[C@H]3O)c(-c3ccc(OC)c(O)c3)oc2c1 [Ombuoside]	-0.8%	–

Source: paper PMC12431657, “Discovery and mechanistic insights of dibenzoylmethane as a broad spectrum inhibitor of coronavirus” (PLOS Pathogens, 2025)
